Patent US11008291B2, “Methods of forming carbene-functionalized composite materials” (Queen's University at Kingston, priority 2015, dated 2021)

Test: Protection of Cu and Ni surfaces from oxidation in air by NHC monolayer (XPS)
Conditions: a week in air; for Protection of copper surface from oxidation by NHC layer: Cu foil coated from the precursor/carbene; for Protection of Ni from oxidation by NHC layer: Ni foil coated from the precursor/carbene

| Compound | Protection of copper surface from oxidation by NHC layer | Protection of Ni from oxidation by NHC layer |
| --- | --- | --- |
| CC(C)N1[C]N(C(C)C)c2ccccc21 [Compound 2a, 1,3-dihydro-1,3-bisisopropylbenzimidazol-2-ylidene] | partially protects | fully protects |
| CC(C)n1c[n+](C(C)C)c2ccccc21 [Compound 3a, 1,3-Diisopropylbenzimidazolium hydrogen carbonate] | partially protects | fully protects |
